According to patent US9447028B2, “Therapeutic aryl-amido-aryl compounds and their use” (King's College London, priority 2009, dated 2016):
At least one structure is not confirmed: it was looked up by name or label, or the drawing left a doubt. Some of these results come from one statement about several compounds together.

Assays:
Format in all cases: cell-based
RARα = molecular target: T1, RARα (Homo sapiens, UniProt P10276); assay: Transactivation assay for RAR alpha (gal4-RAR fusion, luciferase reporter, COS-7 cells); settings: for increase in RARα versus RARβ selectivity / increase in activity towards RARα: compared to the three reference compounds; for RARα/RARβ ratio (*): fold-selectivity for RARα over RARβ; for RARα activity ratio: ratio of test compound EC50 to that of atRA on the same plate
T1 construct: gal4 (fusion partner); expressed in transfected cells; host or cells: COS-7
T1 sequence (P10276 183-417 limits assumed): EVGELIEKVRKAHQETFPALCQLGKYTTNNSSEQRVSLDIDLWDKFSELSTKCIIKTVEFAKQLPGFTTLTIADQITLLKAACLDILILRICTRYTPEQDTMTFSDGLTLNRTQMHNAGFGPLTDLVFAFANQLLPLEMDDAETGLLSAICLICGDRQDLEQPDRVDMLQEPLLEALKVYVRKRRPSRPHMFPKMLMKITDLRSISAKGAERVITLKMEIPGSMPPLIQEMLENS
Procedure: (§1) Transcriptional transactivation assays were performed with gal4 fusion receptor constructs, created using each of the RAR ligand binding domains, co-transfected with the pFR-luc (Stratagene™) reporter construct in COS-7 cells.
(§2) Briefly, on day 1, 96 well plates were seeded with 8000 cells per well then left to recover overnight. On day 2, the cells were co-transfected with 100 ng of reporter plasmid and 10 ng of the appropriate receptor plasmid per well using lipofectamine (Invitrogen™). On day 3, the lipofectamine containing media was replaced by a DMEM without phenol red, followed by the addition of test compound dissolved in 1 μL of DMSO to each well's 100 μL total volume. Finally, on day 4, the cells were lysed and their luciferase substrate was provided by the BrightGlo™ reagent (Promega™), the plates were then read on the MicroBeta TriLux™ (Perkin Elmer™).
(§3) Where replicate data has been generated, the data are quoted as a ratio of the mean EC50 from the separate experiments.

RARβ = molecular target: T2, RARβ (Homo sapiens, UniProt P10826); assay: Transactivation assay for RAR beta (gal4-RAR fusion, luciferase reporter, COS-7 cells); settings: ratio of test compound EC50 to that of atRA; inactive = no agonist action at the highest concentration tested
T2 construct: gal4 (fusion partner); expressed in transfected cells; host or cells: COS-7
T2 sequence (P10826 183-417 limits assumed): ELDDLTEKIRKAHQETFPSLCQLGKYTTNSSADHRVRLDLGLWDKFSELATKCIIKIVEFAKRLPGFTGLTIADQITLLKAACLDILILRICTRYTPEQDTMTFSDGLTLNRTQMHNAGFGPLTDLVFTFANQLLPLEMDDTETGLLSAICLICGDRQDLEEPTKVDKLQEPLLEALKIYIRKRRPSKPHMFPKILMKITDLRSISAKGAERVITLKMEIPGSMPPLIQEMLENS
Procedure: as §1, §2, §3

RARγ = molecular target: T3, RARγ (Homo sapiens, UniProt P13631); assay: Transactivation assay for RAR gamma (gal4-RAR fusion, luciferase reporter, COS-7 cells); settings: ratio of test compound EC50 to that of atRA; inactive = no agonist action at the highest concentration tested
T3 construct: gal4 (fusion partner); expressed in transfected cells; host or cells: COS-7
T3 sequence (P13631 185-419 limits assumed): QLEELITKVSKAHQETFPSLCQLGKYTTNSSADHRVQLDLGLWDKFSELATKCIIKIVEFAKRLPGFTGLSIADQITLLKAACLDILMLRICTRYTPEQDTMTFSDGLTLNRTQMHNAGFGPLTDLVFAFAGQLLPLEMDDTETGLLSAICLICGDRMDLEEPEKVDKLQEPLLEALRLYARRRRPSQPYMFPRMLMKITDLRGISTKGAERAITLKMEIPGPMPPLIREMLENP
Procedure: as §1, §2, §3

SMILES | increase in RARα versus RARβ selectivity (RARα) | increase in activity towards RARα (RARα) | RARβ activity ratio (RARβ) | RARγ activity ratio (RARγ) | RARα/RARβ ratio (*) (RARα) | RARα activity ratio (RARα)
COc1cc(C(=O)Nc2ccc(C(=O)O)cc2)cc(Cl)c1OC1CCCC1 [AAA-006, 4-(3-Chloro-4-(cyclopentyloxy)-5-methoxybenzamido)benzoic acid] | ≥ 3 fold | ≥ 3 fold | – | – | – | –
CCOc1c(C(F)(F)F)cc(NC(=O)c2ccc(C(=O)O)cc2)cc1C(F)(F)F [AAA-015, 4-(4-Ethoxy-3,5-bis(trifluoromethyl)phenylcarbamoyl)benzoic acid] | ≥ 3 fold | ≥ 3 fold | – | – | – | –
CCOc1c(Cl)cc(C(=O)Nc2ccc(C(=O)O)cc2)cc1C(F)(F)F [AAA-025, 4-(3-Chloro-4-ethoxy-5-(trifluoromethyl)benzamido)benzoic acid] | ≥ 3 fold | ≥ 3 fold | – | – | – | –
Cc1cc(NC(=O)c2cc(Cl)c(OC(C)C)c(Cl)c2)ccc1C(=O)O [AAA-032] | – | – | 2700 | 16875 | 44 | 61
CCOc1c(Br)cc(C(=O)Nc2ccc(C(=O)O)c(F)c2)cc1C(F)(F)F [AAA-072, 4-(3-Bromo-4-ethoxy-5-(trifluoromethyl)benzamido)-2-fluorobenzoic acid] | – | – | 2333 | 29474 | 248 | 9.4
